Some results were stated once for a whole list of compounds, not compound by compound.
Assays:
mice = test: Mouse 'tetrad' of tests after i.v. administration (Example 2)
human VR1 receptor = human VR1 receptor (Homo sapiens, UniProt Q8NER1); test: Cytosolic calcium concentration assay in HEK-hVR1 cells (Example 3)

The chains behind the UniProt entries cited, without tags or fusion partners.
UniProt Q8NER1, whole entry: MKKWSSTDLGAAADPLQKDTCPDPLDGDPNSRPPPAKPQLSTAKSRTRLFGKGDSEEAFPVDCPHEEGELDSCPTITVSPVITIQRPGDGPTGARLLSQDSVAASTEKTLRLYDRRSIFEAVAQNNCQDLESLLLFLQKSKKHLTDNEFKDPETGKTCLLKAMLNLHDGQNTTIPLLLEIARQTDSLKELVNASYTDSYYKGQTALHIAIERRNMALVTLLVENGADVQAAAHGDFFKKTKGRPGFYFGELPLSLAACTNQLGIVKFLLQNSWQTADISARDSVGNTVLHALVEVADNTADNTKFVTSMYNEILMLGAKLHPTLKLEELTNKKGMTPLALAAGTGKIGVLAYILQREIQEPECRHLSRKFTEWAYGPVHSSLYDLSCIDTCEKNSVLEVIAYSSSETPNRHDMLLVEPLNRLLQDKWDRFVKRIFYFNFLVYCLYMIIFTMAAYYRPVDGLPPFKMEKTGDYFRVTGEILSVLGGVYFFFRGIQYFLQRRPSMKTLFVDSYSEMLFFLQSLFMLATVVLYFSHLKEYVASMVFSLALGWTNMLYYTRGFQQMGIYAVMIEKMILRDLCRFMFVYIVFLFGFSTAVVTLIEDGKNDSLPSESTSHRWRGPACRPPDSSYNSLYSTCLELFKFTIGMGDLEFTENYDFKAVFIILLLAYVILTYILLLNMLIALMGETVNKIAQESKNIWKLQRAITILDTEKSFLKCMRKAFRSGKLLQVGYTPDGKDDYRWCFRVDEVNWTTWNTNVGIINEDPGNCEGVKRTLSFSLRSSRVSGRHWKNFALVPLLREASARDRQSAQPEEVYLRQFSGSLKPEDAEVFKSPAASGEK

SMILES	times less potent in vivo than the corresponding derivative in the opposite series (mice)	fold less potent than arvanil at hVR1 (human VR1 receptor)
C[C@H](CO)NC(=O)CCC/C=C\C/C=C\C/C=C\C/C=C\C(C)(C)CCCCBr [Compound O-1860, (R)-(20-Bromo-16,16-Dimethyleicosa-cis-5,8,11,14-tetraenoyl)-1′-hydroxy-2′-propylamine]	5-10 times	
COc1cc(CNC(=O)CCC/C=C\C/C=C\C/C=C\C/C=C\C(C)(C)CCCCC#N)ccc1O [Compound O-1895, 20-Cyano-16,16-dimethyl-eicosa-5,8,11,14-all-cis-tetraenoic acid (4-hydroxy-3-methoxy-benzyl) amide]	5-10 times	
CCCCC/C=C\C/C=C\C/C=C\C/C=C\CCCC(=O)N(C)Cc1ccc(O)c(OC)c1 [Compound O-1988]		25-50 fold
CCCCC/C=C\C/C=C\C/C=C\C/C=C\CCCC(=O)NCc1ccc(O)c(Cl)c1 [Compound O-2094]		25-50 fold

From US20040122089A1, “Novel eicosanoid analgesics” (priority 2001, published 2004)
